Each structure is given as a SMILES string.

The test system of data set [1] is Ventricular tachycardia (VT) induced by rapid ventricular pacing. The source says:
Ventricular tachycardia was induced and maintained by rapid ventricular pacing in an open-chest dog model using male mongrel dogs (10-15 kg). Three sets of bipolar epicardial electrodes were placed at 2 cm distances from the left ventricular apex toward the base of the heart. A Grass Model 8 stimulator (Grass Instruments, delivered continuous electrical stimulation as 2-msec square wave impulses with a 50-msec cycle length via a stimulus isolation unit (Bloom Associates, Reading, Pa.). The stimulus isolation unit also repeatedly monitored the pacing current thresholds. After induction of ventricular tachycardia, a controlled release dosage form of the present invention in the shape of a patch of the drug-loaded polymeric matrix material was placed adjacent to the stimulating electrode. The time required to convert the ventricular tachycardia to sinus rhythm was measured, as well as the time course of the quantitative change for sustaining the induction of ventricular tachycardia. The effects of controlled release were monitored for up to 4 hours after conversion to normal sinus rhythm.
All other dosage forms were fabricated by dissolving the therapeutic agent in dimethylacetamide at a concentration of 100 mg/ml therapeutic agent. This solution was further dissolved in a 10% solution of a Thyomer polyurethane and solvent cast into a 0.2 mm films. […] Controls comprised patches of each polymeric matrix material.

In data set [2] the test system is Ouabain-induced ventricular tachycardia. As to conditions: in words.

Take `CCN(CC)CC(=O)Nc1c(C)cccc1C` [Lidocaine, lidocaine]: in data set [1] (dog, in vivo), the “peripheral plasma levels of lidocaine” value is reported as “undetectable”. Also, in data set [1] (in words, controlled release dosage form, epicardial), the “Effectiveness in converting ventricular tachycardia” value is “effectiveness in converting-tachycardia to normal sinus rhythm”. In addition, in data set [1] (mean ± standard error, patches: lidocaine 28% in Tecoflex (N 16), procainamide 30% in Thyomer (7), amiodarone 30% in Thyomer with 10% polyethyleneglycol 200 (3), NiCl2 50% in Thyomer (4)), the “Conversion” value was determined as 0.86 ± 0.68 min. Besides, in data set [2], the “Conversion of ouabain-induced ventricular tachycardia to normal sinus rhythm” value is “converted to normal sinus rhythm in all experimental animals studied”.
